Experimental data from publication PMC7819943, “Rice protein-binding microarrays: a tool to detect cis-acting elements near promoter regions in rice”.
This is one part of the list.

Target: T1, OsSMF1 (Oryza sativa, UniProt Q6ZLB0 1-436)
T1 sequence: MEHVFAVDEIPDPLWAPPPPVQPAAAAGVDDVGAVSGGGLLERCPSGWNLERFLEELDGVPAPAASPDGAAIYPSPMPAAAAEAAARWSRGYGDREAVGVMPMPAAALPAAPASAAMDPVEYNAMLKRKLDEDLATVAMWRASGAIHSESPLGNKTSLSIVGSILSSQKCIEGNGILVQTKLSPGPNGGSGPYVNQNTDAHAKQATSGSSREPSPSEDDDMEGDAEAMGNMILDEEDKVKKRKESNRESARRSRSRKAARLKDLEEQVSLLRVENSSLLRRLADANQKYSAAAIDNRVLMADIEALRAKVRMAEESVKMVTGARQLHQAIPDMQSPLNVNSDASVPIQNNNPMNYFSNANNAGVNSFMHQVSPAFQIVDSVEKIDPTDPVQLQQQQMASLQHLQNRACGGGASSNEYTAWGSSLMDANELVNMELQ
Assay: protein-binding microarray (RPBM); PBS, 2% BSA, 51.3 ng/ul salmon testes DNA, 50 uM zinc acetate, 200 nM TF, 25 C, 1 h; high values mean tight binding
Conditions: protein: recombinant; tags: N-terminal polyhistidine and DsRed monomer fusion (pET32a); chain copies: 2; label: CyDye5-dUTP incorporated in the synthesized complementary strand; 3' TTTTT single-stranded linker to array surface; dsDNA, one strand shown
In short: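 In PBS with 2% BSA, salmon testes DNA and 50 µM zinc acetate, 200 nM protein was incubated on a custom Agilent array at 25 °C for 1 h and then washed off. The array had been made double-stranded by primer extension with Cy5-dUTP and blocked with 2% BSA. The proteins were transcription factors fused N-terminally to polyhistidine and DsRed, expressed in E. coli BL21-CodonPlus and purified on Ni–NTA. The binding signal is per-feature fluorescence intensity (arbitrary units) from an Axon 4000B scanner.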

| Sequence | binding signal |
| --- | --- |
| GGAAATCGTGTGACGGATTTATTAAGCATAATTAATCTATCGGAGTCACCTAGTGCAG | 14400 fluorescence intensity (a.u.) |
| GTCTCACTGGGATGTTGACGTGGGCAGATTACCGAATACGCGGAGTCACCTAGTGCAG | 4670 fluorescence intensity (a.u.) |
| AATCCAATCAGCATACGACACATCAGCATTTTATTAAGTGCGGAGTCACCTAGTGCAG | 8010 fluorescence intensity (a.u.) |
| TGCTGATATTAATGGGTGTGAGGACTTGTACTTTATGAGACGGAGTCACCTAGTGCAG | 4060 fluorescence intensity (a.u.) |
| GAGAGGCGCAGGGGCGGCGGCCCGGCAGTGGCGGGAGGGGCGGAGTCACCTAGTGCAG | 3250 fluorescence intensity (a.u.) |
| ACAGTAGTTACACCTCATTTACAAATTTACATACTAATTGCGGAGTCACCTAGTGCAG | 3450 fluorescence intensity (a.u.) |
| TAGCTAAACCTTACTCCCAAAATTCAGATTGATGAATGCACGGAGTCACCTAGTGCAG | 29400 fluorescence intensity (a.u.) |
| AAATTGAGGTGGTTGCCAGAATTTTAAAATTTTCGTGAATCGGAGTCACCTAGTGCAG | 3630 fluorescence intensity (a.u.) |
| TCCAACCAGATCATGCGACGAGGCTTAATTACGTGTACATCGGAGTCACCTAGTGCAG | 3550 fluorescence intensity (a.u.) |
| CAGGCGCACCGCCTCCACCGCGACACGCCGTGTGAGCGCGCGGAGTCACCTAGTGCAG | 3260 fluorescence intensity (a.u.) |
| GGGGCGGAATAATAGCGGAATGTGATCGTGCCGTGTAATGCGGAGTCACCTAGTGCAG | 3480 fluorescence intensity (a.u.) |
| CTCCTCATAGATTCTGCTGACGTGGACAACCTAAGCAAGCCGGAGTCACCTAGTGCAG | 32200 fluorescence intensity (a.u.) |
| ATTTCTACCTGACGAAGTGACGATGCACTAGCCAGCTACTCGGAGTCACCTAGTGCAG | 3900 fluorescence intensity (a.u.) |
| TTAAACGAATCTCGTTGATCATAGCAGCATGTCAGCATCTCGGAGTCACCTAGTGCAG | 4840 fluorescence intensity (a.u.) |
| CTGAGTATTGTTGTGGGTCCCAGATGTCAGTGATGTTGTACGGAGTCACCTAGTGCAG | 3700 fluorescence intensity (a.u.) |
| TAACAAATAACCTTAAGTCCTTAACAAATAATAAGTGCACCGGAGTCACCTAGTGCAG | 3190 fluorescence intensity (a.u.) |
| GGACAGTACAATCATACCGTTCTCTGACTGCTGAATAGGACGGAGTCACCTAGTGCAG | 3290 fluorescence intensity (a.u.) |
| GAGACTCCAGCCGCTGCCGCCGCCACCACCCACGTCGGCGCGGAGTCACCTAGTGCAG | 5940 fluorescence intensity (a.u.) |
| GCCGTCATTAGCACATGTGTGTTACTGTAGCACTTATGGCCGGAGTCACCTAGTGCAG | 3200 fluorescence intensity (a.u.) |
| CTTTTCTTTGCCTTAACCCGTTTTGCGCGGATGGCCCTTTCGGAGTCACCTAGTGCAG | 13600 fluorescence intensity (a.u.) |
| TCACTTCGCTTCGCCTCTGCTTGCGTGCCAAGTCTAAGACCGGAGTCACCTAGTGCAG | 5500 fluorescence intensity (a.u.) |

Quoted from the listing:
GCCGTCATTAGCACATGTGTGTTACTGTAGCACTTATGGCCGGAGTCACCTAGTGCAG | binding signal: 3200 fluorescence intensity (a.u.)
GAGACTCCAGCCGCTGCCGCCGCCACCACCCACGTCGGCGCGGAGTCACCTAGTGCAG | binding signal: 5940 fluorescence intensity (a.u.)
GAGAGGCGCAGGGGCGGCGGCCCGGCAGTGGCGGGAGGGGCGGAGTCACCTAGTGCAG | binding signal: 3250 fluorescence intensity (a.u.)

(next part)

| Sequence | binding signal |
| --- | --- |
| TAAAACTTAATTAATGACGTGTTAAACGCTGCTTCGTTTTCGGAGTCACCTAGTGCAG | 12600 fluorescence intensity (a.u.) |
| CTCCTTTAAAGAAGAGAATTTGATGATGTGTAAGTTTACACGGAGTCACCTAGTGCAG | 5780 fluorescence intensity (a.u.) |
| AAAACATGATTTTGCCGGACAACGCATTCTCCAATTATATCGGAGTCACCTAGTGCAG | 3330 fluorescence intensity (a.u.) |
| TTTAAACTAGTTTCCAAAGAGCCCATCTTCTCCTAATTTCCGGAGTCACCTAGTGCAG | 15800 fluorescence intensity (a.u.) |
| CCTTGCCGCGTGTCCACCTGCCCTTTCATCGACACCAACACGGAGTCACCTAGTGCAG | 4740 fluorescence intensity (a.u.) |
| TTAATCACTTCTCAAACTTTTAATGCAATGACTTGTGAACCGGAGTCACCTAGTGCAG | 3420 fluorescence intensity (a.u.) |
| AAGATTCGTCTCGCAATTTACACGTAATTTCTTTGCATGCCGGAGTCACCTAGTGCAG | 5570 fluorescence intensity (a.u.) |
| TACACAACGGGCATGGATAATGTGGATGGCGTGGATAAGTCGGAGTCACCTAGTGCAG | 37700 fluorescence intensity (a.u.) |
| GCGGTCGGGCCGGCCCAGGAAATACCAGGCGACGTGGCGGCGGAGTCACCTAGTGCAG | 8410 fluorescence intensity (a.u.) |
| CTGGGCCTGCACAGTCCGTCTCCGACCCGCGTGGCCTCTCCGGAGTCACCTAGTGCAG | 3500 fluorescence intensity (a.u.) |
| GCGGATTAATTACTACTGGGCTGGCATTCTGATCACTTTGCGGAGTCACCTAGTGCAG | 5260 fluorescence intensity (a.u.) |
| ACTGGTTGACTGACTTGTAATAACGTCTGCCATCTCTCTCCGGAGTCACCTAGTGCAG | 3890 fluorescence intensity (a.u.) |
| ATATAAGTCATTCTAACATTTTCCACATTCATTTTGATGTCGGAGTCACCTAGTGCAG | 3530 fluorescence intensity (a.u.) |
| AGTATACGTGACGAGACATTACTGCTGTGTCGCGAGGCCCCGGAGTCACCTAGTGCAG | 4800 fluorescence intensity (a.u.) |
| GCTGTGGAGGAGGGCGTTGGCAGGGGCGACGTGGGAGTAGCGGAGTCACCTAGTGCAG | 3330 fluorescence intensity (a.u.) |
| ATAAAGCTCACATGTCATCCTCCTCCTCTCTCTCCTTCTCCGGAGTCACCTAGTGCAG | 3370 fluorescence intensity (a.u.) |
| CTGCTCGGCGTCACCGTCATCGTCTACCTCCAGGAGAAGGCGGAGTCACCTAGTGCAG | 3960 fluorescence intensity (a.u.) |
| TCAACTGCTGACTCTGTTGAGATCAAACTGAAAGTACTAGCGGAGTCACCTAGTGCAG | 3830 fluorescence intensity (a.u.) |
| TCCAAGTTCAACGATCATGTGCATGACAGTGAACCAACGGCGGAGTCACCTAGTGCAG | 3340 fluorescence intensity (a.u.) |
| TGCTTACTAGCTTAGGTAGGCAGCAGGCATTTCGTGGACACGGAGTCACCTAGTGCAG | 3290 fluorescence intensity (a.u.) |
| TCTCCCGCGTCACACCGAACGCCAATCCCAGGCCGCCCACCGGAGTCACCTAGTGCAG | 3550 fluorescence intensity (a.u.) |
